From patent publication US9284543B2, “Neutral active soluble truncated PH20 polypeptides and uses thereof” (Halozyme, Inc., priority 2008, dated 2016)

Assay: C-terminal sequencing after endoproteinase Asp-N digestion
Settings: Asp-N digest
[1] = Lot HUA0505MA (3D35M cells, 100 L)
[2] = Lot HUB0701EB (2B2 cells, 300 L)

## D28d (DAFKLPPMETEEPQ; C-terminal peptide cleaved from rHuPH20 aa 431-444; listed as Homo sapiens)
[1]
  Abundance of C-terminal fragment: 56.1%
[2]
  Abundance of C-terminal fragment: 27.8%

## D28c (DAFKLPPMETEEPQI; C-terminal peptide cleaved from rHuPH20 aa 431-445; listed as Homo sapiens)
[1]
  Abundance of C-terminal fragment: 11.8%
[2]
  Abundance of C-terminal fragment: 16.7%

## D28e (DAFKLPPMETEEP; C-terminal peptide cleaved from rHuPH20 aa 431-443; listed as Homo sapiens)
[1]
  Abundance of C-terminal fragment: 13.6%
[2]
  Abundance of C-terminal fragment: 6.9%

## D28b (DAFKLPPMETEEPQIF; C-terminal peptide cleaved from rHuPH20 aa 431-446; listed as Homo sapiens)
[1]
  Abundance of C-terminal fragment: 18.4%
[2]
  Abundance of C-terminal fragment: 46.7%

## D28a (DAFKLPPMETEEPQIFY; C-terminal peptide cleaved from rHuPH20 aa 431-447; listed as Homo sapiens)
[1]
  Abundance of C-terminal fragment: 0.2%
[2]
  Abundance of C-terminal fragment: 1.9%
